This passage reports OD600 results from the supplement of paper PMC11546906.

Counter-ions that a name gives are not always drawn. Some of the results follow. This data set is noisy: repeats of one test often differ as much as different tests do.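 Screen of FDA-approved drugs, each combined with colistin at one-eighth of its MIC, against a multidrug-resistant mcr-1-positive clinical E. coli isolate; growth read as OD600 after 24 h. Bacteria without drug were the growth control and plain broth the blank. A combination counted as active when OD600 fell below 0.2.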

For this test, the system named is Escherichia coli 42 (mcr-1-positive clinical isolate). Briefly: OD600 after 24 h growth with compound plus colistin (absorbance units (OD600)); higher = more bacterial growth (less inhibition). To be noted: first compound 25 µM; colistin concentration 0.5 ug/mL; incubation time 24 h; 37 °C.

For `NC(=O)OCC(COC(N)=O)c1ccccc1` [Felbamate] + CCC(C)CCCC(=O)N[C@@H](CCN)C(=O)N[C@H](C(=O)N[C@@H](CCN)C(=O)N[C@H]1CCNC(=O)[C@H]([C@@H](C)O)NC(=O)[C@H](CCN)NC(=O)[C@H](CCN)NC(=O)[C@H](CC(C)C)NC(=O)[C@@H](CC(C)C)NC(=O)[C@H](CCN)NC1=O)[C@@H](C)O [colistin], the OD600 was inactive: 0.95.
For `CO/N=C(\C(=O)N[C@@H]1C(=O)N2C(C(=O)O)=C(CSc3nnnn3C)CS[C@H]12)c1csc(N)n1` [Cefmenoxime hydrochloride] + CCC(C)CCCC(=O)N[C@@H](CCN)C(=O)N[C@H](C(=O)N[C@@H](CCN)C(=O)N[C@H]1CCNC(=O)[C@H]([C@@H](C)O)NC(=O)[C@H](CCN)NC(=O)[C@H](CCN)NC(=O)[C@H](CC(C)C)NC(=O)[C@@H](CC(C)C)NC(=O)[C@H](CCN)NC1=O)[C@@H](C)O [colistin] the value was active: 0.055; for `CCN(Cc1ccncc1)C(=O)C(CO)c1ccccc1` (centres undefined) [Tropicamide] + CCC(C)CCCC(=O)N[C@@H](CCN)C(=O)N[C@H](C(=O)N[C@@H](CCN)C(=O)N[C@H]1CCNC(=O)[C@H]([C@@H](C)O)NC(=O)[C@H](CCN)NC(=O)[C@H](CCN)NC(=O)[C@H](CC(C)C)NC(=O)[C@@H](CC(C)C)NC(=O)[C@H](CCN)NC1=O)[C@@H](C)O [colistin], inactive: 1.14.
For the molecule `Nc1ccn([C@H]2CC[C@@H](CO)O2)c(=O)n1` [Zalcitabine] + CCC(C)CCCC(=O)N[C@@H](CCN)C(=O)N[C@H](C(=O)N[C@@H](CCN)C(=O)N[C@H]1CCNC(=O)[C@H]([C@@H](C)O)NC(=O)[C@H](CCN)NC(=O)[C@H](CCN)NC(=O)[C@H](CC(C)C)NC(=O)[C@@H](CC(C)C)NC(=O)[C@H](CCN)NC1=O)[C@@H](C)O [colistin], the OD600 is inactive: 1.17.
With `NCCS` [2-Aminoethanethiol] + CCC(C)CCCC(=O)N[C@@H](CCN)C(=O)N[C@H](C(=O)N[C@@H](CCN)C(=O)N[C@H]1CCNC(=O)[C@H]([C@@H](C)O)NC(=O)[C@H](CCN)NC(=O)[C@H](CCN)NC(=O)[C@H](CC(C)C)NC(=O)[C@@H](CC(C)C)NC(=O)[C@H](CCN)NC1=O)[C@@H](C)O [colistin], the OD600 was inactive: 0.97.
In the case of `N=C1CCCN1Cc1[nH]c(=O)[nH]c(=O)c1Cl` [Tipiracil hydrochloride] + CCC(C)CCCC(=O)N[C@@H](CCN)C(=O)N[C@H](C(=O)N[C@@H](CCN)C(=O)N[C@H]1CCNC(=O)[C@H]([C@@H](C)O)NC(=O)[C@H](CCN)NC(=O)[C@H](CCN)NC(=O)[C@H](CC(C)C)NC(=O)[C@@H](CC(C)C)NC(=O)[C@H](CCN)NC1=O)[C@@H](C)O [colistin], the OD600 is inactive: 1.13.
Consider `CC(=O)O[C@H]1C[C@@H]2CC[C@@H]3[C@H](CC[C@@]4(C)[C@H]3C[C@H]([N+]3(C)CCCCC3)[C@@H]4OC(C)=O)[C@@]2(C)C[C@@H]1N1CCCCC1` [Vecuronium bromide] + CCC(C)CCCC(=O)N[C@@H](CCN)C(=O)N[C@H](C(=O)N[C@@H](CCN)C(=O)N[C@H]1CCNC(=O)[C@H]([C@@H](C)O)NC(=O)[C@H](CCN)NC(=O)[C@H](CCN)NC(=O)[C@H](CC(C)C)NC(=O)[C@@H](CC(C)C)NC(=O)[C@H](CCN)NC1=O)[C@@H](C)O [colistin], for which the OD600 is inactive: 0.857.
For `CCCSc1nc(N[C@@H]2C[C@H]2c2ccc(F)c(F)c2)c2nnn([C@@H]3C[C@H](OCCO)[C@@H](O)[C@H]3O)c2n1` [Ticagrelor] + CCC(C)CCCC(=O)N[C@@H](CCN)C(=O)N[C@H](C(=O)N[C@@H](CCN)C(=O)N[C@H]1CCNC(=O)[C@H]([C@@H](C)O)NC(=O)[C@H](CCN)NC(=O)[C@H](CCN)NC(=O)[C@H](CC(C)C)NC(=O)[C@@H](CC(C)C)NC(=O)[C@H](CCN)NC1=O)[C@@H](C)O [colistin], the OD600 was inactive: 1.08.
`C[C@]1(Cn2ccnn2)[C@H](C(=O)O)N2C(=O)C[C@H]2S1(=O)=O` [Tazobactam] + CCC(C)CCCC(=O)N[C@@H](CCN)C(=O)N[C@H](C(=O)N[C@@H](CCN)C(=O)N[C@H]1CCNC(=O)[C@H]([C@@H](C)O)NC(=O)[C@H](CCN)NC(=O)[C@H](CCN)NC(=O)[C@H](CC(C)C)NC(=O)[C@@H](CC(C)C)NC(=O)[C@H](CCN)NC1=O)[C@@H](C)O [colistin]: the OD600 was inactive: 1.03.
For the molecule `Cc1cn(-c2cc(NC(=O)c3ccc(C)c(Nc4nccc(-c5cccnc5)n4)c3)cc(C(F)(F)F)c2)cn1` [Nilotinib] + CCC(C)CCCC(=O)N[C@@H](CCN)C(=O)N[C@H](C(=O)N[C@@H](CCN)C(=O)N[C@H]1CCNC(=O)[C@H]([C@@H](C)O)NC(=O)[C@H](CCN)NC(=O)[C@H](CCN)NC(=O)[C@H](CC(C)C)NC(=O)[C@@H](CC(C)C)NC(=O)[C@H](CCN)NC1=O)[C@@H](C)O [colistin], the OD600 is inactive: 1.03.
On to `CN1CC2c3ccccc3Oc3ccc(Cl)cc3C2C1` (centres undefined) [Asenapine Maleate] + CCC(C)CCCC(=O)N[C@@H](CCN)C(=O)N[C@H](C(=O)N[C@@H](CCN)C(=O)N[C@H]1CCNC(=O)[C@H]([C@@H](C)O)NC(=O)[C@H](CCN)NC(=O)[C@H](CCN)NC(=O)[C@H](CC(C)C)NC(=O)[C@@H](CC(C)C)NC(=O)[C@H](CCN)NC1=O)[C@@H](C)O [colistin], for which the OD600 is inactive: 0.899.
Under `Cn1ccnc1S` [Methimazole] + CCC(C)CCCC(=O)N[C@@H](CCN)C(=O)N[C@H](C(=O)N[C@@H](CCN)C(=O)N[C@H]1CCNC(=O)[C@H]([C@@H](C)O)NC(=O)[C@H](CCN)NC(=O)[C@H](CCN)NC(=O)[C@H](CC(C)C)NC(=O)[C@@H](CC(C)C)NC(=O)[C@H](CCN)NC1=O)[C@@H](C)O [colistin] stands inactive: 1.09.
With `COC(=O)N[C@H](C(=O)N1CCC[C@H]1c1ncc(-c2ccc(-c3ccc(-c4cnc([C@@H]5CCCN5C(=O)[C@@H](NC(=O)OC)C(C)C)[nH]4)cc3)cc2)[nH]1)C(C)C` [Daclatasvir dihydrochloride] + CCC(C)CCCC(=O)N[C@@H](CCN)C(=O)N[C@H](C(=O)N[C@@H](CCN)C(=O)N[C@H]1CCNC(=O)[C@H]([C@@H](C)O)NC(=O)[C@H](CCN)NC(=O)[C@H](CCN)NC(=O)[C@H](CC(C)C)NC(=O)[C@@H](CC(C)C)NC(=O)[C@H](CCN)NC1=O)[C@@H](C)O [colistin], the OD600 was inactive: 1.04.
For `Cc1cc(C)cc(OCC2CNC(=O)O2)c1` (centres undefined) [Metaxalone] + CCC(C)CCCC(=O)N[C@@H](CCN)C(=O)N[C@H](C(=O)N[C@@H](CCN)C(=O)N[C@H]1CCNC(=O)[C@H]([C@@H](C)O)NC(=O)[C@H](CCN)NC(=O)[C@H](CCN)NC(=O)[C@H](CC(C)C)NC(=O)[C@@H](CC(C)C)NC(=O)[C@H](CCN)NC1=O)[C@@H](C)O [colistin] the value was inactive: 0.998.
Turning to `Cc1[nH]c(=O)c(C#N)cc1-c1ccncc1` [Milrinone] + CCC(C)CCCC(=O)N[C@@H](CCN)C(=O)N[C@H](C(=O)N[C@@H](CCN)C(=O)N[C@H]1CCNC(=O)[C@H]([C@@H](C)O)NC(=O)[C@H](CCN)NC(=O)[C@H](CCN)NC(=O)[C@H](CC(C)C)NC(=O)[C@@H](CC(C)C)NC(=O)[C@H](CCN)NC1=O)[C@@H](C)O [colistin], the OD600 is inactive: 1.02.
For `OC[C@@H](O)[C@@H](O[C@@H]1O[C@H](CO)[C@H](O)[C@H](O)[C@H]1O)[C@H](O)[C@@H](O)CO` [Lactitol monohydrate] + CCC(C)CCCC(=O)N[C@@H](CCN)C(=O)N[C@H](C(=O)N[C@@H](CCN)C(=O)N[C@H]1CCNC(=O)[C@H]([C@@H](C)O)NC(=O)[C@H](CCN)NC(=O)[C@H](CCN)NC(=O)[C@H](CC(C)C)NC(=O)[C@@H](CC(C)C)NC(=O)[C@H](CCN)NC1=O)[C@@H](C)O [colistin] the value was inactive: 1.09.
On to `COc1cc(CNC(=O)CCCC/C=C/C(C)C)ccc1O` [Capsaicin] + CCC(C)CCCC(=O)N[C@@H](CCN)C(=O)N[C@H](C(=O)N[C@@H](CCN)C(=O)N[C@H]1CCNC(=O)[C@H]([C@@H](C)O)NC(=O)[C@H](CCN)NC(=O)[C@H](CCN)NC(=O)[C@H](CC(C)C)NC(=O)[C@@H](CC(C)C)NC(=O)[C@H](CCN)NC1=O)[C@@H](C)O [colistin], for which the OD600 was inactive: 1.15.
Under `CCc1c(C)[nH]c2c1C(=O)C(CN1CCOCC1)CC2` (centres undefined) [Molindone hydrochloride] + CCC(C)CCCC(=O)N[C@@H](CCN)C(=O)N[C@H](C(=O)N[C@@H](CCN)C(=O)N[C@H]1CCNC(=O)[C@H]([C@@H](C)O)NC(=O)[C@H](CCN)NC(=O)[C@H](CCN)NC(=O)[C@H](CC(C)C)NC(=O)[C@@H](CC(C)C)NC(=O)[C@H](CCN)NC1=O)[C@@H](C)O [colistin] stands inactive: 1.02.
Turning to `CC[C@H](C)C(=O)O[C@H]1C[C@H](O)C=C2C=C[C@H](C)[C@H](CC[C@@H](O)C[C@@H](O)CC(=O)O)[C@H]21` [Pravastatin sodium] + CCC(C)CCCC(=O)N[C@@H](CCN)C(=O)N[C@H](C(=O)N[C@@H](CCN)C(=O)N[C@H]1CCNC(=O)[C@H]([C@@H](C)O)NC(=O)[C@H](CCN)NC(=O)[C@H](CCN)NC(=O)[C@H](CC(C)C)NC(=O)[C@@H](CC(C)C)NC(=O)[C@H](CCN)NC1=O)[C@@H](C)O [colistin], the OD600 was inactive: 1.2.
